Binding data for three molecules are collected here from paper PMC10012460.

The chains behind the UniProt entries cited, without tags or fusion partners.
UniProt Q9Z1E3: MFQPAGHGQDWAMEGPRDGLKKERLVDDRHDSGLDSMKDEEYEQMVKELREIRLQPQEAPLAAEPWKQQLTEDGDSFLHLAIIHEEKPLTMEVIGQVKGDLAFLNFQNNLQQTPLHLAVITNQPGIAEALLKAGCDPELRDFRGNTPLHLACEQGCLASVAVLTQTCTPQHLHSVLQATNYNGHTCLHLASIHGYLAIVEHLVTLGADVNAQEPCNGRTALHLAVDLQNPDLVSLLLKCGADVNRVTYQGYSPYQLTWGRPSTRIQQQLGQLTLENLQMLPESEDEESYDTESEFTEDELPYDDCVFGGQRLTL
UniProt P25963: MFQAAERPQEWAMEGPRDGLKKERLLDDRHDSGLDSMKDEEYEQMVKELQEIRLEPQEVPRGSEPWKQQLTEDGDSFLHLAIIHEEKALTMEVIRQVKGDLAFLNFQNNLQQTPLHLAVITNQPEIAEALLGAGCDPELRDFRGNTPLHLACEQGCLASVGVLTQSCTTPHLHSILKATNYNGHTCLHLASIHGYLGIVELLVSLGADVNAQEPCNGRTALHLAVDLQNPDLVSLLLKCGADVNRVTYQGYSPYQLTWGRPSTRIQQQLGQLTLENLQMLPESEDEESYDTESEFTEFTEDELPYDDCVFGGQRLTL

Results are given in words; binding and its absence hold for the method and conditions named. Binding seen in cells or lysates may run through a third protein. Some entries that bind do so weakly or less than the wild type. For part of these data: Where a sequence is shown, tags or fusion partners need not be part of it.

The target in one assay is T1, Flag-tagged USP13 (WT) (UniProt Q92995).
T1 sequence: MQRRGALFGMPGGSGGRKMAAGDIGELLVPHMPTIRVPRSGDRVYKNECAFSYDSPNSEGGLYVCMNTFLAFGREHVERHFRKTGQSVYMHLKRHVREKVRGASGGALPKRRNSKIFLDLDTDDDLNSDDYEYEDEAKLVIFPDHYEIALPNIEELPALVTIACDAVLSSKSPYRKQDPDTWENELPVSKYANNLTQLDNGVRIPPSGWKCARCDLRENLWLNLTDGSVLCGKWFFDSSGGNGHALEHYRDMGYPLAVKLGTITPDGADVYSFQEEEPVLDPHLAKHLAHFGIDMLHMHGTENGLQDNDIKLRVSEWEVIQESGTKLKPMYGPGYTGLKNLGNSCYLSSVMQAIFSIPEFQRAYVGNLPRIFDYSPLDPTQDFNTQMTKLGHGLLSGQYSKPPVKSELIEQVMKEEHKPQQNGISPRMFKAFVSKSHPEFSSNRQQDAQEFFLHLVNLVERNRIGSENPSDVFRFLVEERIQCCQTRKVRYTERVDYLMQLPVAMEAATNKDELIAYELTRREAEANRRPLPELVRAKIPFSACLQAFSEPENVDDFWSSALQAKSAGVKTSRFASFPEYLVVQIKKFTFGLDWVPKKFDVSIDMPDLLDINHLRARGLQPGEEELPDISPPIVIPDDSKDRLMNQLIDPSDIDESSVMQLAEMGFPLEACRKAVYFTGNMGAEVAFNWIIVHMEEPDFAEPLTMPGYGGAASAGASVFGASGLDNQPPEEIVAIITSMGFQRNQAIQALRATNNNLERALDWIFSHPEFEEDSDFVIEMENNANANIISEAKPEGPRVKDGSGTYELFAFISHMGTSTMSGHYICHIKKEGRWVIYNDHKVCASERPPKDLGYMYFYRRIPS
Nature of the assay: co-IP; HEK 293T cells transfected with Flag-tagged USP13 and Myc-tagged IκBα plasmids; RIPA lysate, immunoprecipitation with specific antibodies and protein A/G plus-agarose at 4 °C overnight, immunoblot.

The target in assay [1] is T2, Ubiquitin-specific protease 13 (USP13), endogenous in BV2 microglia (mouse (endogenous in BV2)) (UniProt Q5BKP2).
T2 sequence: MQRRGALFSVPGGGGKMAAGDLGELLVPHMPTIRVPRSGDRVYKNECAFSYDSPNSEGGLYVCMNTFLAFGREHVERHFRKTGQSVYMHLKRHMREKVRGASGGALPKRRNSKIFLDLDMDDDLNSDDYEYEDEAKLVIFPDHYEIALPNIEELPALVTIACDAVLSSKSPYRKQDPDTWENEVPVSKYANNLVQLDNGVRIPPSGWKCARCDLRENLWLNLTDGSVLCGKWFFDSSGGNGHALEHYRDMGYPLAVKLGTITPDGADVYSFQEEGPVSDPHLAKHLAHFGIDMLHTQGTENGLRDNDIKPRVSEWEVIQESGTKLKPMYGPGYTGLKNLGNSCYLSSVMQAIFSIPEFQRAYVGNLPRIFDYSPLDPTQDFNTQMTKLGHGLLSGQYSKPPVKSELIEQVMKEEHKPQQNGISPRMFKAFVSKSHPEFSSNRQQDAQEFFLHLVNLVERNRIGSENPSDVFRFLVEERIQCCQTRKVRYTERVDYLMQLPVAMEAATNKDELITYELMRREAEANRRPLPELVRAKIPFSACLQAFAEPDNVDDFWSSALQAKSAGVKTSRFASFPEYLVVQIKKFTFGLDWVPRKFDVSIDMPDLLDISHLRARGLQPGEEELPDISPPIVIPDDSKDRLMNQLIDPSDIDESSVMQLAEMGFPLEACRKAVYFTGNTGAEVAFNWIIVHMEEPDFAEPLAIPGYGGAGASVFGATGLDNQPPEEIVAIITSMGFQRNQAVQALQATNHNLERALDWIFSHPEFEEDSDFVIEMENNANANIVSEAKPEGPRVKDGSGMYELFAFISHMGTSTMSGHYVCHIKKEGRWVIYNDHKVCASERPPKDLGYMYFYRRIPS
In words: co-IP; endogenous proteins in BV2 microglia; RIPA lysate, precleared with control IgG and protein A/G plus-agarose, immunoprecipitated with USP13 or IκBα antibody at 4 °C overnight, washed five times, immunoblot. (In western blotting, separated proteins are transferred to a membrane and probed.)

The target in assay [2] is NF-κB inhibitor alpha (IκBα), endogenous in BV2 microglia (mouse (endogenous in BV2)) (UniProt Q9Z1E3). The description is as above.

In the case of “Myc-tagged IκBα (from UniProt P25963 1-317)”, in the assay with Flag-tagged USP13 (WT), the binding entry is recorded as “binds”.

With “NF-κB inhibitor alpha (IκBα), endogenous in BV2 microglia (from UniProt Q9Z1E3 1-314)”, the binding entry in assay [1] is reported as “binds”.

B1: Ubiquitin-specific protease 13 (USP13), endogenous in BV2 microglia (enzyme, UniProt Q5BKP2 1-858)
chain: T2 sequence
Regarding B1, in assay [2], the binding result is listed as “binds”.
